# Cell number after 72 h of treatment

From a melanoma drug combination screen (doi:10.1371/journal.pone.0140310); values rounded.

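Human melanoma cells were exposed to a pair of drugs for 72 h in 1,536-well plates and read by automated microscopy after fixing and staining. Each value is the count of nuclei relative to DMSO-treated wells, in %, so that 100 equals the control. Every drug was used at one fixed concentration, the higher of two screened. No replicate spread is given; individual values may be noisy.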
An unselected part of the screen is shown.

All values are for the listed drug together with BI-78D3 (1 µM): O=c1[nH]nc(Sc2ncc([N+](=O)[O-])s2)n1-c1ccc2c(c1)OCCO2

| Partner | COLO 792 | C32 | COLO 829 | COLO 800 | WM451Lu | WM3619 |
|---|---|---|---|---|---|---|
| NC(=O)c1ccc(N(C(N)=O)c2c(F)cccc2F)nc1-c1ccc(F)cc1F at 2 µM | 88.7 | 88.9 | 98.2 | 96.9 | 82.3 | 84.3 |
| Cc1cn(-c2cc(NC(=O)c3ccc(C)c(Nc4nccc(-c5cccnc5)n4)c3)cc(C(F)(F)F)c2)cn1 at 1 µM | 98.9 | 90.5 | 126 | 79.4 | 109 | 73.8 |
| Cc1cc(Nc2cc(N3CCN(C)CC3)nc(/C=C/c3ccccc3)n2)n[nH]1 at 0.2 µM | 82.5 | 123 | 77.3 | 60.9 | 80.8 | 105 |
| CO[C@@H]1[C@H](N(C)C(=O)c2ccccc2)C[C@H]2O[C@]1(C)n1c3ccccc3c3c4c(c5c6ccccc6n2c5c31)C(=O)NC4 at 0.4 µM | 69.1 | 61.0 | 173 | 47.3 | 78.1 | 61.4 |
| CO[C@H]1C[C@@H]2CC[C@@H](C)[C@@](O)(O2)C(=O)C(=O)N2CCCC[C@H]2C(=O)O[C@H]([C@H](C)C[C@@H]2CC[C@@H](OCCO)[C@H](OC)C2)CC(=O)[C@H](C)/C=C(\C)[C@@H](O)[C@@H](OC)C(=O)[C@H](C)C[C@H](C)/C=C/C=C/C=C/1C at 0.1 µM | 57.3 | 75.3 | 61.1 | 43.5 | 64.4 | 54.0 |
| COCC[n+]1c2c(n(Cc3cnccn3)c1C)C(=O)c1ccccc1C2=O at 0.002 µM | 80.9 | 100 | 78.2 | 30.1 | 34.2 | 77.8 |
| C=C(c1ccc(C(=O)O)cc1)c1cc2c(cc1C)C(C)(C)CCC2(C)C at 10 µM | 81.9 | 99.3 | 74.2 | 55.2 | 82.3 | 92.8 |
| CS(=O)(=O)c1ccc(C(=O)Nc2ccc(Cl)c(-c3ccccn3)c2)c(Cl)c1 at 5 µM | 106 | 116 | 50.3 | 80.9 | 116 | 100 |
| Cn1cnc2c(F)c(Nc3ccc(Br)cc3Cl)c(C(=O)NOCCO)cc21 at 0.075 µM | 60.5 | 84.5 | 94.9 | 48.5 | 54.6 | 61.4 |
| N.N.[Cl][Pt][Cl] at 8 µM | 88.6 | 86.6 | 96.2 | 153 | 97.3 | 76.2 |
| CC1(C)CCC(c2ccc(Cl)cc2)=C(CN2CCN(c3ccc(C(=O)NS(=O)(=O)c4ccc(N[C@H](CCN5CCOCC5)CSc5ccccc5)c(S(=O)(=O)C(F)(F)F)c4)cc3)CC2)C1 at 2 µM | 14.1 | 73.4 | 75.7 | 22.1 | 81.3 | 65.6 |
| O=C(O)[C@@H]1[O][Sb](=[O])([O][Sb]2(=[O])[O][C@H]([C@H](O)CO)[C@H](O)[C@H](C(=O)O)[O]2)[O][C@H]([C@H](O)CO)[C@@H]1O (stereo partly drawn) at 10 µM | 89.9 | 77.1 | 83.2 | 74.8 | 76.8 | 88.8 |
| CC(C)C[C@H](NC(=O)[C@H](Cc1ccccc1)NC(=O)c1cnccn1)B(O)O at 0.005 µM | 59.5 | 31.9 | 10.6 | 55.0 | 15.4 | 2.3 |
| CCCS(=O)(=O)Nc1ccc(F)c(C(=O)c2c[nH]c3ncc(Cl)cc23)c1F at 0.4 µM | 135 | 76.9 | 67.1 | 79.8 | 73.4 | 80.1 |
| OCCn1cc(-c2cnc3nnn(Cc4ccc5ncccc5c4)c3n2)cn1 at 5 µM | 106 | 96.8 | 72.8 | 82.5 | 82.4 | 91.6 |
| C[As](C)SC[C@H](NC(=O)CC[C@H](N)C(=O)O)C(=O)NCC(=O)O at 2 µM | 75.1 | 94.6 | 83.1 | 86.3 | 74.7 | 85.0 |
| O=C(Oc1ccc([N+](=O)[O-])cc1)N1CCC(C(O)(c2ccc3c(c2)OCO3)c2ccc3c(c2)OCO3)CC1 at 5 µM | 112 | 85.6 | 94.0 | 99.2 | 112 | 81.9 |
| O=C(CCCCCCC(=O)Nc1ccccc1)NO at 0.4 µM | 98.5 | 85.0 | 69.1 | 52.5 | 84.1 | 62.3 |

Some entries from above, unchanged:

| Partner | COLO 792 | C32 | COLO 829 | COLO 800 | WM451Lu | WM3619 |
|---|---|---|---|---|---|---|
| CCCS(=O)(=O)Nc1ccc(F)c(C(=O)c2c[nH]c3ncc(Cl)cc23)c1F at 0.4 µM | 135 | 76.9 | 67.1 | 79.8 | 73.4 | 80.1 |
| NC(=O)c1ccc(N(C(N)=O)c2c(F)cccc2F)nc1-c1ccc(F)cc1F at 2 µM | 88.7 | 88.9 | 98.2 | 96.9 | 82.3 | 84.3 |